Some of these results come from one statement about several compounds together.
Test: Thermal stability by nanoDSF
Assay type: physicochemical
Method: Thermal stability measurements. Thermal stability of BSA and HSA variants (His-tagged form) and of commercial WT HSA and BSA (Sigma-Aldrich A1653 and A7638, respectively) was measured by nanoscale differential scanning fluorimetry (nanoDSF), in Prometheus NT.48 instrument (NanoTemper). The temperature was increased from 20° C. to 95° C. at 1° C./min ramp. Thermal stability of HSA variants was also measured by differential scanning calorimetry (DCS) in VP-DSC instrument (Malvern), with heating from 20° C. to 95° C. at 1° C./min and cooling at the same rate.

B1: HSA1: human serum albumin variant with 16 mutations, no surface and no binding site mutations (Table 2) (protein)
chain: MDAHKSEVAHRFKDLGEENFKALVLIAFAQYLQQCPFEDLVKMVNEVTEFAKTCVADESAENCDKSLHTLFGDKLCTVATLRETYGEMADCCAKQEPERNECFLQHKDDNPNLPRLVRPEPDVMCTAFHDNEETFLKKYLYEIARRHPYFYAPELLYFAKRYKAAFTECCQAADKAACLLPKLDELREEGKASSAKQRHKCAILQKFGERAFKAWAVARLSQRFPKAEFAEVSKLVTDLTKVHTECCHGDLLECADDRADLAKYICENQDSISSKLKECCEKPLLEKSHCIAEVENDEMPADLPSLAADFIESKDVCKNYAEAKDVFLGMFLYEYARRHPDYSVVLLLRLAKTYETTLEKCCAAADPHECYSKVFDEFKPLIEEPQNLIKQNCELFEQLGEYKFQNALLIRYTKKVPQVSTPTLVEVARNLGKVGSKCCKHPEAKRMPCAEDYLSIVLNQLCVLHEKTPVSDRVTKCCTESLVNRRPCFSALEVDETYVPKEFNAETFTFHADICTLSEEERQIKKQTALVELVKHKPKATKEQLKAVMDDFSAFVEKCCKADDKETCFAEEGKKLIAASQAALGL
modifications: Albumin Synthetic variant
Increase of thermal stability (TM) relative to commercial WT HSA: 26-40 °C

B2: HSA3: most highly mutated human albumin variant, 73 mutations all over the protein (Table 2) (protein)
chain: MDAHKSEVAHRFKDLGEENFKALVLIAFAQYLQKCPFEELVKMVKEVTEFAKKCVADETAENCDKSLHTLFGDKLCQVATLRETYGEMADCCAKQDPERHECFLQHKDDNPNLPRLERPEVDVMCKAFHDNEETFLNKYLYEIARRHPYFYAPELLYFAKRYKKAFTECCQAEDKAACLLPKLDALREEGKESSAKQRYKCAILQKFGERVFKAWAIARLSQRFPKAPFEEISKLVTDLTKVHKACCHGDMLECMDDRAKLAKYICENQDSISSKLKECCEKPLLERSHCIAEVENDDKPEDLPPLAADFVESKDVCKNYAEAKDVFLARFLYEYARRHPDYSVTLLLRIAKTYEDTLEKCCKAEDPHECYAKVEEEFKKLVEETQNLIKQNCELFEKLGEYYFQNALLIRYTKKMPQVPTDTLVELTRNLGKVGSKCCKLPEEKRLPCIEDYLSIVLNQLCVLHEKTPVNDRVTKCCTESLVNRRHCFSALEVDETYVPKEFNAETFTFHADLCTLSEEERQIMKQKFLVELVKHKPKATEEQLKAVMDDFTAFVEKCCKAEDPETCFAEEGSKLIAASQAALGL
modifications: Albumin Synthetic variant
Increase of thermal stability (TM) relative to commercial WT HSA: 26-40 °C

— patent US12583908B2, “Albumin protein variants, production thereof and uses of same” (Yeda Research and Development Co. Ltd., priority 2022, dated 2026)
